This is one part of the list.
Compound: Cc1cc(ccc1-c1ccccc1)C(=O)N1CCCN(CC1)C(=O)CCl [compound 10]
Assay: probe-labelled cysteine peptide fold change vs DMSO (competition) (log2 fold change); higher = less target engagement (more negative = stronger competition)
Details: THP-1, incubation time: 4 h
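Also: competitive profiling in live THP-1 cells: cysteine peptides tagged with an iodoacetamide desthiobiotin (IA-DTB) probe, intensity after compound treatment relative to DMSO-treated cells.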

By UniProt entry, the sequences of proteins in these tests, tags left out. Where a name states a change or a piece, a line headed by the entry shows the natural chain unless it says otherwise.
UniProt P41250: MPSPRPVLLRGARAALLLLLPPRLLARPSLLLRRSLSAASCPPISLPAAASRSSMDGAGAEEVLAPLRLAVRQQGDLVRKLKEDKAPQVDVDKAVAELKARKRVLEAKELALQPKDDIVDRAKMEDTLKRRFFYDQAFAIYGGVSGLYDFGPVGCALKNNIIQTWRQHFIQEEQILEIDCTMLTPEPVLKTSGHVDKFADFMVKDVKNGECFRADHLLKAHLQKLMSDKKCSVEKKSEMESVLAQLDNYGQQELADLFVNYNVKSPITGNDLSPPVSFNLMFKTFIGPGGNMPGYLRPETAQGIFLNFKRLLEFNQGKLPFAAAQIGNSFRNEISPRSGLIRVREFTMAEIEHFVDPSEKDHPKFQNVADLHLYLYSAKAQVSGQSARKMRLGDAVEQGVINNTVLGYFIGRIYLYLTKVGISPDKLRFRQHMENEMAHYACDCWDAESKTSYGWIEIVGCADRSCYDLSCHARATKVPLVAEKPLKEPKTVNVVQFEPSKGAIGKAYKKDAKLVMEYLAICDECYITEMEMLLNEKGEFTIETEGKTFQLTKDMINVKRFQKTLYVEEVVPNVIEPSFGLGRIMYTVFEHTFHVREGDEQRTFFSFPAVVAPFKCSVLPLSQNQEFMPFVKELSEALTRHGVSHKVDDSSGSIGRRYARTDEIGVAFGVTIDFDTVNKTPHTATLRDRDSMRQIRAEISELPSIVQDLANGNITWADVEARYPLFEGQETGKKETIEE
UniProt Q14161: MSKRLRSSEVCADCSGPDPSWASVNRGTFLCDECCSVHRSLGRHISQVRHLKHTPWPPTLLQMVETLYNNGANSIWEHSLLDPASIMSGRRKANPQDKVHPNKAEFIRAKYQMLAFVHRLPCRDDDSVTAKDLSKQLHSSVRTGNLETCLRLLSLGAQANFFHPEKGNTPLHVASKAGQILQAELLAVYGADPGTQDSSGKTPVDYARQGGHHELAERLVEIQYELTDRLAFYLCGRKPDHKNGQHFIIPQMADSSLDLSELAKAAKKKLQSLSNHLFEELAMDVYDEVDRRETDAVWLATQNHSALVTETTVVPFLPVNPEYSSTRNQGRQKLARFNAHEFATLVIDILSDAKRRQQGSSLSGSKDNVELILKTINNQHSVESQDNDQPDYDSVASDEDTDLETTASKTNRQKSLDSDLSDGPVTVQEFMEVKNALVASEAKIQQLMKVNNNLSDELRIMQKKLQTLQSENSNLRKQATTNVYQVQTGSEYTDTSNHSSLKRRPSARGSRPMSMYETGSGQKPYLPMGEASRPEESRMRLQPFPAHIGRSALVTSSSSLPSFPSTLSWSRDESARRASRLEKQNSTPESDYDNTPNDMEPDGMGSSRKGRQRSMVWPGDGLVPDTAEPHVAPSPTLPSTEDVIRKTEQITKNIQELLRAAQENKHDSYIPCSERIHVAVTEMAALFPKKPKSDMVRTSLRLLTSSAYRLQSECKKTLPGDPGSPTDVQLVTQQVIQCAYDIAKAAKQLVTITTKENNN
UniProt Q9UG22: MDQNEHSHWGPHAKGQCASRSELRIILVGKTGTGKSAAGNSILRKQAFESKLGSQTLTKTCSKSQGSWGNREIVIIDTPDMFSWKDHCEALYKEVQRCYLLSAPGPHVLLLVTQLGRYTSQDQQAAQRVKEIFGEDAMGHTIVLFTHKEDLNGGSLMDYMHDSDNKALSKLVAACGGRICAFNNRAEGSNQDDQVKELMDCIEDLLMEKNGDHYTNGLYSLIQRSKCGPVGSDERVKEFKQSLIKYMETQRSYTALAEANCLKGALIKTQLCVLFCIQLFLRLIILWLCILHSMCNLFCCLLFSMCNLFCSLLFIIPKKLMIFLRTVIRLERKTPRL
UniProt Q86YP4: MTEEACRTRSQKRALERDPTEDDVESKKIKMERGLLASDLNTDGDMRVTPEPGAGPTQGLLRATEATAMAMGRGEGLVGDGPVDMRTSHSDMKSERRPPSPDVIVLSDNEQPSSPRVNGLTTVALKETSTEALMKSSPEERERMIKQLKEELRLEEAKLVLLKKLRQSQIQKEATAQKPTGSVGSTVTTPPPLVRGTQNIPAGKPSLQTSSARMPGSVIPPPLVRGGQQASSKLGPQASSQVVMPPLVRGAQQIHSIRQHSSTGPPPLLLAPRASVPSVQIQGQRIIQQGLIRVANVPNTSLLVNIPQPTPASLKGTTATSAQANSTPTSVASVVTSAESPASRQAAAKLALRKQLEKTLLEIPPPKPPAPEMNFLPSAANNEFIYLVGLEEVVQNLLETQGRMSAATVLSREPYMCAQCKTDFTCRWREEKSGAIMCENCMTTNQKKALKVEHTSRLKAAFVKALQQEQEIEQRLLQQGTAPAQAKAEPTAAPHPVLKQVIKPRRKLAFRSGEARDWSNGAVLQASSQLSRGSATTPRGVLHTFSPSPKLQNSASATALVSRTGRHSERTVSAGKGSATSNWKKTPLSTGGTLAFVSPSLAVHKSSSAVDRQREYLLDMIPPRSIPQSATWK
UniProt Q06210: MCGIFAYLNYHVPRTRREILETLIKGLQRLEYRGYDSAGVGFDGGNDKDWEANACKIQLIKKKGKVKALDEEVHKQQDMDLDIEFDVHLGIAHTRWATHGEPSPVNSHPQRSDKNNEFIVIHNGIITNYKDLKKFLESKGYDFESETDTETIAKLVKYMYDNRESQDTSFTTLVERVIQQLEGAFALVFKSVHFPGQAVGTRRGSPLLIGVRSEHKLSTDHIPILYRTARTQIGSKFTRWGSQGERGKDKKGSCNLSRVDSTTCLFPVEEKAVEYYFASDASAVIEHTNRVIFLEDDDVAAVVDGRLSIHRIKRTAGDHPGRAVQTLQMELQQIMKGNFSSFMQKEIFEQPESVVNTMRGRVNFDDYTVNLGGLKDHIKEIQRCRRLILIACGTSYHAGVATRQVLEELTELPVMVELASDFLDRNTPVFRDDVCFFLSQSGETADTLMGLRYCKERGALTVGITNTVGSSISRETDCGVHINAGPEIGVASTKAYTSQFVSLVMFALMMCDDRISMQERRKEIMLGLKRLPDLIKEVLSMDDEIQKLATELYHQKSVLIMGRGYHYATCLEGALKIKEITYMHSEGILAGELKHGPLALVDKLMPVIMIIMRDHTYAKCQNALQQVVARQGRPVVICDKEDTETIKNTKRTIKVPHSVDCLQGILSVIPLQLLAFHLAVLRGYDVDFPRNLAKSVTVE
UniProt Q96F15: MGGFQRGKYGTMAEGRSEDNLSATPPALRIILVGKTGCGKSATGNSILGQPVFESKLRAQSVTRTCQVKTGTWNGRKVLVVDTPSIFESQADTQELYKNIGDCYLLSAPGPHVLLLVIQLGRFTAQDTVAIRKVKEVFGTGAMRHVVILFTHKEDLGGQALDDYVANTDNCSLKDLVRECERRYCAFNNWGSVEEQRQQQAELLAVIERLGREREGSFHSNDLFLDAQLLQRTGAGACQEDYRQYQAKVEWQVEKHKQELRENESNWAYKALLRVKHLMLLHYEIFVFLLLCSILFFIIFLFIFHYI
UniProt Q86SF2: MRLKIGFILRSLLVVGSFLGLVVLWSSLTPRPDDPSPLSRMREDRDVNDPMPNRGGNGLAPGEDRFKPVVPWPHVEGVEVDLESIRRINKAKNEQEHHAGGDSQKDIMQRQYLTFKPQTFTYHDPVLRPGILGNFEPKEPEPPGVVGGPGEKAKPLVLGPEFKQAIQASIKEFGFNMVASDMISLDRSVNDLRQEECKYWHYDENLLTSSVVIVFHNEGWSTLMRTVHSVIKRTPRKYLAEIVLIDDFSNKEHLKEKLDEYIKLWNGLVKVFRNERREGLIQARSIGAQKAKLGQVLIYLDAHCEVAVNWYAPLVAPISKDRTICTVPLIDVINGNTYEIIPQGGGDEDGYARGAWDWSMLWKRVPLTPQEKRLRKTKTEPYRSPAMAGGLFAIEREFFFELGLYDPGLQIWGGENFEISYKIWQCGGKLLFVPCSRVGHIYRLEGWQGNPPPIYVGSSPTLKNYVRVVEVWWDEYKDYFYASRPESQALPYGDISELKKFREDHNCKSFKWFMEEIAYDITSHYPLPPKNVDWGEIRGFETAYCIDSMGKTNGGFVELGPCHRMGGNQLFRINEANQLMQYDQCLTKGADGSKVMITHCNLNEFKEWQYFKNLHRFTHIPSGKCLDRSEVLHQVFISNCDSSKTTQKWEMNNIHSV
UniProt Q99684: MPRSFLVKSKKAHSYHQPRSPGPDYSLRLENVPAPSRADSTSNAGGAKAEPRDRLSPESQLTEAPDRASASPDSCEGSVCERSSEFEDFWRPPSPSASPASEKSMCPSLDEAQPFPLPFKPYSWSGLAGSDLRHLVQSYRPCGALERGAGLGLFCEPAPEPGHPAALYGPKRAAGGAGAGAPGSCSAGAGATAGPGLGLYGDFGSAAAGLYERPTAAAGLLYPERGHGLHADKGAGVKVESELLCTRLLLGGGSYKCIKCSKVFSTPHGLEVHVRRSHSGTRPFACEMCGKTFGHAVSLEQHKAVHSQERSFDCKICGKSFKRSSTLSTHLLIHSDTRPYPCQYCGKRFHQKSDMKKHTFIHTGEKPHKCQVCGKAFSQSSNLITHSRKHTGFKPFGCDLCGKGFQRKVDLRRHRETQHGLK
UniProt P55789: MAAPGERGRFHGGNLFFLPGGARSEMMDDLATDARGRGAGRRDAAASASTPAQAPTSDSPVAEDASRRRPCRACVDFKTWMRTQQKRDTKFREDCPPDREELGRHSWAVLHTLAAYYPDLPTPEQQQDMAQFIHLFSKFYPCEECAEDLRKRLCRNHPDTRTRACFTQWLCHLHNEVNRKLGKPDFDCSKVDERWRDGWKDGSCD
UniProt P22102: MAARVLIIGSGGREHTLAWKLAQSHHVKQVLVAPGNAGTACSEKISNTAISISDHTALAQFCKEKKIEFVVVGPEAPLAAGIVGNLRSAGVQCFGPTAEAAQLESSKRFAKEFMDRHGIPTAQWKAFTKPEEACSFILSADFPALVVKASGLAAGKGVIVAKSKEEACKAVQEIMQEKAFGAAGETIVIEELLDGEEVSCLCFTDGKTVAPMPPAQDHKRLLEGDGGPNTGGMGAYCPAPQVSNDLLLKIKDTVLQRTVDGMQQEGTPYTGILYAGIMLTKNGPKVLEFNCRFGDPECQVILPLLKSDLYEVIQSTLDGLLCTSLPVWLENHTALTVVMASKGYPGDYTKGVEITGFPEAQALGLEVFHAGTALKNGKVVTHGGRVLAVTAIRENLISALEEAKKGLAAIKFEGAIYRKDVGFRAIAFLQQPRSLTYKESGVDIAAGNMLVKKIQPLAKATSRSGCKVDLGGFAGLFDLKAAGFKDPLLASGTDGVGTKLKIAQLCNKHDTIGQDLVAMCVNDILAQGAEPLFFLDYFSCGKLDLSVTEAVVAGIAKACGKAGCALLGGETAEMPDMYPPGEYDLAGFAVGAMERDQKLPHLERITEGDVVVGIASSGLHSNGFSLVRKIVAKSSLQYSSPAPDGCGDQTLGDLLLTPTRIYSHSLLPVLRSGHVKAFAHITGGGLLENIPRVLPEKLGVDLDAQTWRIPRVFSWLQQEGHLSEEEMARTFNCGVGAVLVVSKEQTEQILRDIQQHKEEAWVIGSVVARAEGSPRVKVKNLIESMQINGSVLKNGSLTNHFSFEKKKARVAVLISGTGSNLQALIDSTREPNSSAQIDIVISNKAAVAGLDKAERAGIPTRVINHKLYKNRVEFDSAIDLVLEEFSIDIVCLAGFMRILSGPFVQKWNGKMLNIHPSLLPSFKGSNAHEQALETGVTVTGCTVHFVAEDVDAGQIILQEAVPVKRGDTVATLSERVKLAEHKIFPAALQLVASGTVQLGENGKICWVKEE
UniProt O14893: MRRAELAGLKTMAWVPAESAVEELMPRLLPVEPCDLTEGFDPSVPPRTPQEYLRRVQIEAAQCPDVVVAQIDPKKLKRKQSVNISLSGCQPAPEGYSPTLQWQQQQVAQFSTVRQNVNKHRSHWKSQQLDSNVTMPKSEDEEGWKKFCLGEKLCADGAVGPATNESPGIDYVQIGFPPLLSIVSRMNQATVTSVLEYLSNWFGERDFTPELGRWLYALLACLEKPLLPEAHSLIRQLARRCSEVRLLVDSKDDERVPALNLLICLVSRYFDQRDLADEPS
UniProt Q9NXN4: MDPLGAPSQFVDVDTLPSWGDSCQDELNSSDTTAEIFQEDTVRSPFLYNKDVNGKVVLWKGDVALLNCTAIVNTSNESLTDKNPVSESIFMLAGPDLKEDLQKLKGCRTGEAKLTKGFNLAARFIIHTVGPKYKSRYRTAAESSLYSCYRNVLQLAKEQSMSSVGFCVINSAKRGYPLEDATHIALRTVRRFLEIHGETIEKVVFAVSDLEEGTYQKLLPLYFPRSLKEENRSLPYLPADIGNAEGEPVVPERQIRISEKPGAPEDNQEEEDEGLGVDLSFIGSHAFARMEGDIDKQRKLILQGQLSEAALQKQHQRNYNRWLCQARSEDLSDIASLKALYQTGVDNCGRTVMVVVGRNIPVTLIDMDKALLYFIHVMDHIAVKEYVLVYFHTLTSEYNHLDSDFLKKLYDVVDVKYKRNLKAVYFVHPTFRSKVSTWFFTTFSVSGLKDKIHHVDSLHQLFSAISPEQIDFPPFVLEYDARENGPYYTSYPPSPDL

Target: GGNBP2_Q9H3C7_89+92_EVLSALSQLVPCVGCR (UniProt Q9H3C7)
- probe-labelled cysteine peptide fold change (10 µM): -0.275
- probe-labelled cysteine peptide fold change (50 µM): -0.268

Target: GARS_P41250_461_TSYGWIEIVGCADR (UniProt P41250)
- probe-labelled cysteine peptide fold change (10 µM): 0.205
- probe-labelled cysteine peptide fold change (50 µM): -0.00336

Target: GIT2_Q14161_235_LAFYLCGR (UniProt Q14161)
- probe-labelled cysteine peptide fold change (10 µM): -0.031
- probe-labelled cysteine peptide fold change (50 µM): -0.172

Target: GIMAP2_Q9UG22_201_ELMDCIEDLLMEK (UniProt Q9UG22)
- probe-labelled cysteine peptide fold change (10 µM): 0.356
- probe-labelled cysteine peptide fold change (50 µM): 0.119

Target: GATAD2A_Q86YP4_6_TEEACR (UniProt Q86YP4)
- probe-labelled cysteine peptide fold change (10 µM): -0.14
- probe-labelled cysteine peptide fold change (50 µM): -0.13

Target: GAPDH_P04406_156_IISNASCTTNCLAPLAK (UniProt P04406)
- probe-labelled cysteine peptide fold change (10 µM): 0.00471
- probe-labelled cysteine peptide fold change (50 µM): -0.496

Target: GFPT1_Q06210_55_DWEANACK (UniProt Q06210)
- probe-labelled cysteine peptide fold change (10 µM): -0.0151
- probe-labelled cysteine peptide fold change (50 µM): -0.0483

Target: GAPVD1_Q14C86_789_IEDLRSECSSDFGGK (UniProt Q14C86)
- probe-labelled cysteine peptide fold change (10 µM): -0.209
- probe-labelled cysteine peptide fold change (50 µM): -0.31

Target: GIMAP5_Q96F15_238_TGAGACQEDYR (UniProt Q96F15)
- probe-labelled cysteine peptide fold change (10 µM): -0.145
- probe-labelled cysteine peptide fold change (50 µM): -0.239

Target: GIT2_Q14161_122_LPCRDDDSVTAK (UniProt Q14161)
- probe-labelled cysteine peptide fold change (10 µM): -0.101
- probe-labelled cysteine peptide fold change (50 µM): -0.401

Target: GALNT7_Q86SF2_562_TNGGFVELGPCHR (UniProt Q86SF2)
- probe-labelled cysteine peptide fold change (10 µM): 0.0465
- probe-labelled cysteine peptide fold change (50 µM): 0.0262

Target: GDI2_P50395_302_VICILSHPIK (UniProt P50395)
- probe-labelled cysteine peptide fold change (10 µM): -0.022
- probe-labelled cysteine peptide fold change (50 µM): -0.0296

Target: GATAD2A_Q86YP4_420_EPYMCAQCK (UniProt Q86YP4)
- probe-labelled cysteine peptide fold change (10 µM): 0.0841
- probe-labelled cysteine peptide fold change (50 µM): -0.39

Target: GALNT7_Q86SF2_197_SVNDLRQEECK (UniProt Q86SF2)
- probe-labelled cysteine peptide fold change (10 µM): -0.0144
- probe-labelled cysteine peptide fold change (50 µM): 0.0986

Target: GFI1_Q99684_398_HTGFKPFGCDLCGK (UniProt Q99684)
- probe-labelled cysteine peptide fold change (10 µM): 0.154
- probe-labelled cysteine peptide fold change (50 µM): 0.544

Target: GARS_P41250_442+444_FRQHMENEMAHYACDCWDAESK (UniProt P41250)
- probe-labelled cysteine peptide fold change (10 µM): 0.0206
- probe-labelled cysteine peptide fold change (50 µM): -0.755

Target: GFER_P55789_165_ACFTQWLCHLHNEVNR (UniProt P55789)
- probe-labelled cysteine peptide fold change (10 µM): 0.0703
- probe-labelled cysteine peptide fold change (50 µM): 0.073

Target: GART_P22102_93_SAGVQCFGPTAEAAQLESSKR (UniProt P22102)
- probe-labelled cysteine peptide fold change (10 µM): -0.0118
- probe-labelled cysteine peptide fold change (50 µM): -0.205

Target: GIT1_Q9Y2X7_35_GVLVCDECCSVHR (UniProt Q9Y2X7)
- probe-labelled cysteine peptide fold change (10 µM): 0.142
- probe-labelled cysteine peptide fold change (50 µM): 0.193

Target: GCC2_Q8IWJ2_257_ELMCQIEASAK (UniProt Q8IWJ2)
- probe-labelled cysteine peptide fold change (10 µM): -0.164
- probe-labelled cysteine peptide fold change (50 µM): -0.256

Target: GFI1_Q99684_342+345_SSTLSTHLLIHSDTRPYPCQYCGK (UniProt Q99684)
- probe-labelled cysteine peptide fold change (10 µM): 0.0509
- probe-labelled cysteine peptide fold change (50 µM): 0.071

Target: GEMIN4_P57678_486_QVIHLILECYADLSLPGK (UniProt P57678)
- probe-labelled cysteine peptide fold change (10 µM): 0.0972
- probe-labelled cysteine peptide fold change (50 µM): 0.0728

Target: GDI2_P50395_202_FDLGQDVIDFTGHALALYRTDDYLDQPCYETINR (UniProt P50395)
- probe-labelled cysteine peptide fold change (10 µM): -0.369
- probe-labelled cysteine peptide fold change (50 µM): -0.384

Target: GEMIN2_O14893_264_DDERVPALNLLICLVSR (UniProt O14893)
- probe-labelled cysteine peptide fold change (10 µM): 0.264
- probe-labelled cysteine peptide fold change (50 µM): 0.116

Target: GFPT1_Q06210_570_GYHYATCLEGALK (UniProt Q06210)
- probe-labelled cysteine peptide fold change (10 µM): 0.0515
- probe-labelled cysteine peptide fold change (50 µM): 0.0897

Target: GBF1_Q92538_1414_DAAHITPDNFELCVK (UniProt Q92538)
- probe-labelled cysteine peptide fold change (10 µM): 0.219
- probe-labelled cysteine peptide fold change (50 µM): 0.568

Target: GDAP2_Q9NXN4_148_TAAESSLYSCYR (UniProt Q9NXN4)
- probe-labelled cysteine peptide fold change (10 µM): -0.0153
- probe-labelled cysteine peptide fold change (50 µM): 0.00868

Target: GFI1_Q99684_398_KHTGFKPFGCDLCGK (UniProt Q99684)
- probe-labelled cysteine peptide fold change (10 µM): 0.0893
- probe-labelled cysteine peptide fold change (50 µM): 0.374

Target: GDAP2_Q9NXN4_348_ALYQTGVDNCGR (UniProt Q9NXN4)
- probe-labelled cysteine peptide fold change (10 µM): -0.138
- probe-labelled cysteine peptide fold change (50 µM): -0.0533

Target: GARS_P41250_180_QHFIQEEQILEIDCTMLTPEPVLK (UniProt P41250)
- probe-labelled cysteine peptide fold change (10 µM): -0.21
- probe-labelled cysteine peptide fold change (50 µM): 0.122

Target: GIT2_Q14161_11+14_SSEVCADCSGPDPSWASVNR (UniProt Q14161)
- probe-labelled cysteine peptide fold change (10 µM): 0.152
- probe-labelled cysteine peptide fold change (50 µM): -0.129

Target: GATD1_Q8NB37_122+132_ILQHFHSESKPICAVGHGVAALCCATNEDR (UniProt Q8NB37)
- probe-labelled cysteine peptide fold change (10 µM): 0.29
- probe-labelled cysteine peptide fold change (50 µM): -0.512

Target: GAPVD1_Q14C86_71_LIITSAEASPAECCQHAK (UniProt Q14C86)
- probe-labelled cysteine peptide fold change (10 µM): -0.0179
- probe-labelled cysteine peptide fold change (50 µM): -0.441

Target: GANC_Q8TET4_758_TFAHWEGGCTVK (UniProt Q8TET4)
- probe-labelled cysteine peptide fold change (10 µM): 0.138
- probe-labelled cysteine peptide fold change (50 µM): 0.108

Target: GAPVD1_Q14C86_1253_YFTTVCVR (UniProt Q14C86)
- probe-labelled cysteine peptide fold change (10 µM): -0.00537
- probe-labelled cysteine peptide fold change (50 µM): 0.122

Target: GDI2_P50395_282_QLICDPSYVK (UniProt P50395)
- probe-labelled cysteine peptide fold change (10 µM): -0.00251
- probe-labelled cysteine peptide fold change (50 µM): 0.0252

Target: GART_P22102_93_SAGVQCFGPTAEAAQLESSK (UniProt P22102)
- probe-labelled cysteine peptide fold change (10 µM): 0.0279
- probe-labelled cysteine peptide fold change (50 µM): 0.0457

Target: GIT2_Q14161_31+35_GTFLCDECCSVHR (UniProt Q14161)
- probe-labelled cysteine peptide fold change (10 µM): -0.0726
- probe-labelled cysteine peptide fold change (50 µM): 0.00157

Target: GDAP1_Q8TB36_51_CEEHDVSLPLSEHNEPWFMR (UniProt Q8TB36)
- probe-labelled cysteine peptide fold change (10 µM): 0.0603
- probe-labelled cysteine peptide fold change (50 µM): 0.173

Target: GART_P22102_298_FGDPECQVILPLLK (UniProt P22102)
- probe-labelled cysteine peptide fold change (10 µM): 0.272
- probe-labelled cysteine peptide fold change (50 µM): -0.00458

Target: GFPT1_Q06210_264_VDSTTCLFPVEEK (UniProt Q06210)
- probe-labelled cysteine peptide fold change (10 µM): -0.0167
- probe-labelled cysteine peptide fold change (50 µM): 0.203

From the supplement of paper PMC12067093, “Discovery and optimisation of a covalent ligand for TRIM25 and its application to targeted protein ubiquitination” (Chemical Science, 2025)
